From patent US8569245B2, “Protease inhibitors, compositions and methods of use” (University of Florida Research Foundation, Inc., priority 2009, dated 2013)
Entries after “also recorded” stand apart in the source; their conditions may differ. At least one compound was matched to its structure with a doubt left. Non-standard residues stand in square brackets, D forms with d. Residues, ends and D or L forms follow the SMILES beside them. *: point of attachment. Sta = CC(C)C[C@H](N)[C@@H](O)CC(=O)O; NMe2Val = CC(C)[C@@H](C(=O)*)N(C)C; dNMeF = CN[C@H](Cc1ccccc1)C(=O)O; dHiv = CC(C)[C@@H](O)C(=O)O; Hiv = CC(C)[C@H](O)C(=O)O

Legend:
ADAM10 = target: T1, ADAM10 (Homo sapiens, UniProt O14672); assay: Protease inhibition screen and dose-response assay; assay type: biochemical; conditions: 10 μM
T1 construct: Reaction Biology Corp. (ran the assay)
T1 sequence (O14672 214-748): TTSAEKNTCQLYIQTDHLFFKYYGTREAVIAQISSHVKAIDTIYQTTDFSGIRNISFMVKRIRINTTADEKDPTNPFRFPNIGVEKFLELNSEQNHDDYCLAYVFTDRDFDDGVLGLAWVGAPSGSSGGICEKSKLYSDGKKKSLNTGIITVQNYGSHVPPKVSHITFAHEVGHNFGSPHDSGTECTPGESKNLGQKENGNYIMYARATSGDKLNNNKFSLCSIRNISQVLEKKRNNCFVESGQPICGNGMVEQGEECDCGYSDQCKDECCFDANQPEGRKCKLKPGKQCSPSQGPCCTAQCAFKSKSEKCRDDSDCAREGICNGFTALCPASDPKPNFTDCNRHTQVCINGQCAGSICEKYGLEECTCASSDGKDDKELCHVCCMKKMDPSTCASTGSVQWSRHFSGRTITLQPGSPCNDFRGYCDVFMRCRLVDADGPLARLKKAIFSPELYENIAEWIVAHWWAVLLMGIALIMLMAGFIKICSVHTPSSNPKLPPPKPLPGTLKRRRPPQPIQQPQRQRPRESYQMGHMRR

[1] = system: human peripheral blood mononuclear cells (PBMCs); assay: Antigen-stimulated T cell proliferation in PBMCs (flow cytometry, CD3+ gate); assay type: cell-based; conditions: PBMC, 10 μM
Description: PBMCs were isolated from buffy coats (leukopac, PBL) obtained from Lifesouth Community Blood Center (Gainesville, Fla., USA) by Ficoll-Hypaque density gradient centrifugation using Lymphoprep (Axis-Shield, Norway). Briefly, the contents of the buffy coat were diluted to three times its volume in sterile 1×PBS pH 7.4 (Gibco, California, USA). The dilution was layered onto the Lymphoprep in a 2:1 ratio. The sample was then centrifuged for 25 min at room temperature and 250 g. The PBMCs were collected at the interface, washed twice with PBS and centrifuged each time for 10 min at 4° C. and 250 g. Cell viability was assessed by trypan blue exclusion. […]
Experimental pelleted cells were incubated for 30 min at 4° C. with antibodies and washed with staining buffer (PBS+2% BSA+0.1% Na azide). […] Quantitation was carried out using FCS Express (version 3, De Novo Software, Los Angeles, Calif.) by gating for lymphocytes based on forward and side scatter properties followed by analysis of the percentages of positively stained quadrants. 50,000 cells were analyzed for each sample and isotype-specific immunoglobulin controls were run for each fluorochrome. […]

[2] = system: TH cells induced by autologous activated DC; assay: Autologous mixed lymphocyte reaction, monocyte-derived DCs and CD4+ T cells; assay type: cell-based, human; conditions: autologous MLR; for T cell (TH) proliferation: TTc and PMA, 5 days
[3] = system: TH cells induced by allogeneic activated DC; assay: Allogeneic mixed lymphocyte reaction, DCs and TH cells from different donors; assay type: cell-based, human; conditions: allogeneic MLR
MCF7 cells = assay: Cellular uptake and inhibition of cellular cathepsins, treated cells then lysed, cathepsin D/E substrate; assay type: cell-based; conditions: MCF7 cells treated 1 h, lysate protease activity
Description: MCF7 cells were cultured in Dulbecco's Modified Eagle Medium (DMEM, Invitrogen) containing 10% fetal bovine serum (FBS, HyClone, Logan, Utah), in a humidified atmosphere containing 5% CO2 at 37° C. Briefly, MCF7 cells were seeded into 24-well plates. […] After 1 h incubation the medium was removed and the cells were trypsinized for 10 min, before being collected by centrifugation and lysed with NP-40 lysis buffer (1% NP-40, 50 mM NaOAc, pH 4.0). The lysate (50 μL) from each well was incubated at 37° C. with 10 μM Mca-[…]Dnp)-D-Arg-NH2 (the same substrate used for cathepsin D and E in other assays) in 50 mM NaOAc (pH 4.0, total volume 100 μL). The reaction was monitored by measuring the increase in fluorescence (λex=320 nm, λem=405 nm).
After this time, cells were washed, lysed and then the protease activity of the lysate was measured with a fluorogenic cathepsin D/E substrate (see FIG. 9A).

Structure (SMILES): COC(=O)[C@@H]1CCCN1C(=O)[C@@H](Cc1ccccc1)N(C)C(=O)[C@H](C)NC(=O)[C@@H](NC(=O)C[C@H](O)[C@H](CC(C)C)NC(=O)[C@H](CC(N)=O)NC(=O)[C@H](CC(C)C)NC(=O)[C@H](OC(=O)[C@@H](OC(=O)[C@H](C(C)C)N(C)C)C(C)C)C(C)C)[C@@H](C)O [Compound 1, grassystatin A] (NMe2Val-[Hiv][dHiv]LN[Sta]TA[dNMeF]P-OMe)
- inhibitory activity in protease panel (ADAM10): compromised activities
- T cell proliferation in response to exogenous antigen (TTc) [1]: significantly reduce
- interferon-γ (IFN-γ) production by TH cells [2]: reduced production; also recorded: inhibit upregulation
- interleukin-17 (IL-17) production by TH cells [2]: reduced production; also recorded: inhibit upregulation
- T cell (TH) proliferation [2]: reduce T cell proliferation in a dose dependent manner
- T cell (TH) proliferation ([2]; listed as compound 1): reduce
- IFN-γ production by TH cells [3]: significant downregulation
- IL-17 production by TH cells [3]: significant downregulation
- apparent IC50 in a cellular system (MCF7 cells): fairly similar
